# This list was built around the results that the source calls inconclusive (neither active nor inactive); the mix of calls is not that of the screen. For some assays here: A potency beside an inconclusive call is a rough fit, not a confirmed value. Activity calls are given as the source filed them. Unless noted, calls follow the shape of the dose curve; as a rule, active = well fitted curve in the direction sought with a large enough effect; inconclusive = small, poorly fitted or top-dose-only effect, or another doubt; inactive = no such curve, though single readings can be large; an effect the other way counts as inactive or inconclusive.
# Tests used:
# [1] = VSVG counterscreen qHTS to identify inhibitors of SARS-CoV-2 cell entry (AID 1645847; calls by dose curve; also: nearly all actives have a fitted effect of over 65% in size); details: VSV-G pseudotyped particle entry, luciferase; activity change, negative = inhibition: at 57.2 µM (top of the series)
# How it was run: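 Counterscreen using VSV-G (not spike) pseudotyped MLV particles on ACE2-expressing Expi293F cells after 1 h compound preincubation; infection ran 48 h at 37 °C. Data normalized to VSV-G PP and bald-PP wells.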
# [2] = Primary qHTS to identify inhibitors of SARS-CoV-2 cell entry (AID 1645846; calls by dose curve; also: nearly all actives have a fitted effect of over 45% in size; also: potency is read from the fitted curve at half-maximal effect); details: SARS-CoV-2 pseudovirus cell entry assay, luminescence; activity change, negative = inhibition: at 57.1 µM (top of the series); series mostly up to 57.1 µM
# How it was run: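 Data are normalized to wells receiving SARS-CoV-2-S pseudoparticles and those given bald particles. Entry signal was luciferase luminescence in stable hACE2 Expi293F cells, 48 hr post-infection, after 1 hr compound pretreatment.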
# [3] = target: Phospholipid hydroperoxide glutathione peroxidase GPX4 (Homo sapiens) (UniProt P36969); assay: Primary qHTS Assay for Inhibitors of Recombinant Selenoprotein Glutathione Peroxidase 4 (GPX4) (AID 1845192); details: recombinant GPX4, GR-coupled NADPH fluorescence, 15 min; activity change, negative = inhibition: at 50 µM (top of the series); series mostly up to 50 µM; also: potency is read from the fitted curve at half-maximal effect; nearly all actives have a fitted effect of over 65% in size
# How it was run: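 NADPH consumption, followed by fluorescence at 340/450 nm between 0 and 15 min, reports GPX4 activity via coupled glutathione reductase (100 nM). Enzyme 200 nM was pre-exposed to compound 30 min; 0.5 mM cumene hydroperoxide and 1 mM GSH served as substrates.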
# [4] = Primary qHTS for inhibitors of nuclear receptor binding SET domain protein 2 (NSD2) in an RCH-ACV wild type WT cells (2C) (AID 1645877); details: RCH-ACV (leukaemia line) NSD2 WT (2C) viability, CellTiter-Glo, 72 h; series mostly up to 44.9 µM; also: potency is read from the fitted curve at half-maximal effect; nearly all actives have a fitted effect of over 70% in size
# [5] = target: Muscarinic acetylcholine receptor M1 (Rattus norvegicus) (UniProt P08482); assay: qHTS Assay for Antagonists of Acetylcholine Muscarinic M1 Receptor: Measurement of IP-One Response (AID 944); details: CHO-M1 cells, IP-One HTRF, antagonist mode; series mostly up to 46.1 µM; also: potency is read from the fitted curve at half-maximal effect; nearly all actives have a fitted effect of over 75% in size
# [6] = target: ATP-dependent 6-phosphofructokinase (Trypanosoma brucei brucei) (UniProt O15648); assay: qHTS Validation Assay to Find Inhibitors of T. brucei phosphofructokinase (AID 485368); also: potency is read from the fitted curve at half-maximal effect; details: T. brucei PFK enzyme assay, qHTS 7-point titration; series mostly up to 57.5 µM
# How it was run: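 Compounds (up to 57 uM, titration series) were pinned into substrate buffer, then 1.25 nM PFK added; after 45 min at room temperature, ADP product was quantified by ADP-Glo luminescence and concentration-response curves fitted.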
# [7] = Quantitative high throughput screen for delayed death inhibitors of the malarial parasite plastid, 96 hour incubation (AID 488745); details: Plasmodium falciparum growth; series mostly up to 28.7 µM; also: potency is read from the fitted curve at half-maximal effect; nearly all actives have a fitted effect of over 70% in size
# How it was run: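 Luciferase-expressing P. falciparum in erythrocytes (2% hematocrit, 0.1% parasitemia) incubated with compound for 96 h at 37 C, 5% CO2, in RPMI 1640 with 0.5% Albumax. Growth inhibition read as decreased luminescence.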
# [8] = target: Thioredoxin reductase 1, cytoplasmic (Rattus norvegicus) (UniProt O89049); assay: qHTS Assay for Inhibitors of Mammalian Selenoprotein Thioredoxin Reductase 1 (TrxR1) (AID 488773); details: purified TrxR1 enzyme activity; Potency: inhibition; series mostly up to 57.1 µM; also: potency is read from the fitted curve at half-maximal effect; nearly all actives have a fitted effect of over 40% in size
# How it was run: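 Steps: enzyme (90 nM) plus NADPH (400 uM final), 5 min at ~22 deg C; compound added, 15 min; selenite (400 uM final) added; fluorescence followed for 8 min. Concentration-response curves derived from the normalized delta values.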
# [9] = target: M-phase phosphoprotein 8 (Homo sapiens) (UniProt Q99549); assay: qHTS Validation Assay for Inhibitors for MPP8 Chromodomain Interactions with Methylated Histone Tails (AID 488949); details: AlphaScreen MPP8 binding to H3K9me3 peptide; series mostly up to 57.1 µM; also: potency is read from the fitted curve at half-maximal effect; nearly all actives have a fitted effect of over 55% in size
# How it was run: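 Disruption of the preformed MPP8–trimethyl-H3K9 peptide complex (both 50 nM, 30 min, RT) is measured after 30 min compound exposure, using AlphaScreen proximity beads; aurintricarboxylic acid titration serves as plate control.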
# [10] = target: Chromobox protein homolog 1 (Homo sapiens) (UniProt P83916); assay: qHTS Validation Assay for Inhibitors of HP1-beta Chromodomain Interactions with Methylated Histone Tails (AID 488953); details: HP1-beta chromodomain / methylated histone peptide binding assay; series mostly up to 114 µM; also: potency is read from the fitted curve at half-maximal effect; nearly all actives have a fitted effect of over 50% in size
# How it was run: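 HP1-beta (50 nM) preformed 30 min with biotinylated H3(1-18)K9me3 peptide (50 nM) in PBS pH 7.4, 0.01% Tween-20. Compounds added for 30 min at room temperature. Complex disruption read by AlphaScreen with streptavidin donor/nickel chelate acceptor beads (10 ug/mL each).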
# [11] = target: Ubiquitin carboxyl-terminal hydrolase 1 (Homo sapiens) (UniProt O94782); assay: Inhibitors of USP1/UAF1: Pilot qHTS (AID 504865); details: purified USP1/UAF1, Ub-rhodamine cleavage fluorescence; series mostly up to 114 µM;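 also: rhodamine fluorescence freed from ubiquitin-rhodamine substrate followed over time; top concentration of the series differs between compounds; nearly all actives have a fitted effect of over 35% in size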
# How it was run: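 Kinetic fluorescence assay: 1nM USP1/UAF1, 15 min compound preincubation, then 150nM Ub-Rho; 480/540 nm.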
# [12] = target: Arylsulfatase A (Homo sapiens) (UniProt P15289); assay: qHTS screen for enhancers of Arylsulfatase A (ASA1): LOPAC Validation Assay (AID 720538); details: ASA enzyme activity, LOPAC qHTS enhancer assay; series mostly up to 57.5 µM; also: potency is read from the fitted curve at half-maximal effect
# How it was run: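 First, ASA-I179S fibroblasts from an MLD patient adhered for 6 hrs. Next, compounds were added for 48h. Then pNCS substrate (0.5mM final) with lysis buffer reacted 14h at room temperature before NaOH stop and fluorescence measurement.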
smiles,measurement,setting,value
CS(=O)(=O)c1ccc(-c2cnc(NCc3ccco3)n3cnnc23)cc1,Potency,[1],inactive
COCC1=C(C(=O)OC(C)OC(=O)OC(C)C)N2C(=O)[C@@H](NC(=O)/C(=N/OC)c3csc(N)n3)[C@H]2SC1 (some centres not stated),Potency,[2],"inconclusive: 8.91 µM [inhibitor, partial curve]"
CC(Cc1ccc2c(c1)OCO2)NCC(O)c1ccc(O)c(O)c1 (configuration not stated),Potency,[2],"inconclusive: 14.1 µM [inhibitor, partial curve, poor fit]"
same,Potency,[3],active: 15.8 µM
CNc1nc(-c2ccc3c(N)n[nH]c3c2)cc(N2C[C@@H](C(=O)NC3CCCCC3)CC[C@H]2C)n1,Potency,[2],"inconclusive: 39.8 µM [inhibitor, single point]"
O=C(O)CC(C(=O)O)n1c(O)c(C2=c3cc(Br)ccc3=NC2=O)sc1=S (configuration not stated),Potency,[2],"inconclusive: 25.1 µM [inhibitor, partial curve]"
CC(=O)O[C@@]12CO[C@@H]1C[C@H](O)[C@@]1(C)C(=O)[C@H](O)C3=C(C)[C@@H](O)C[C@@](O)([C@@H](OC(=O)c4ccccc4)[C@H]21)C3(C)C,Potency,[2],"inconclusive: 31.6 µM [inhibitor, partial curve]"
same,Potency,[4],"inconclusive: 37.2 µM [inhibitor, single point]"
CC[N+](CC)(CC)CCOc1cccc(OCC[N+](CC)(CC)CC)c1OCC[N+](CC)(CC)CC,Potency,[5],"inconclusive: 17.8 µM [inhibitor, partial curve, poor fit]"
same,Potency,[6],"inconclusive: 0.0338 µM [activator, full curve, poor fit]"
same,Potency,[7],"inconclusive: 0.0522 µM [activator, full curve, poor fit]"
same,Potency,[8],"inconclusive: 0.0532 µM [inhibitor, full curve, poor fit]"
same,Potency,[9],active: 13.4 µM
same,Potency,[10],"inconclusive: 37.7 µM [inhibitor, partial curve, poor fit]"
same,Potency,[11],inactive
same,Potency,[12],"inconclusive: 1.07 µM [activator, full curve, poor fit]"
same,Potency,[2],inactive

# Two successive entries from above, quoted:
smiles,measurement,setting,value
CC[N+](CC)(CC)CCOc1cccc(OCC[N+](CC)(CC)CC)c1OCC[N+](CC)(CC)CC,Potency,[7],"inconclusive: 0.0522 µM [activator, full curve, poor fit]"
same,Potency,[8],"inconclusive: 0.0532 µM [inhibitor, full curve, poor fit]"

# Source: PubChem BioAssay (NCATS)
